# Laboratory results from paper PMC5173105.
# Sequences of proteins named here, by UniProt entry; tags and fusion partners are left off. A change or cut given only in a name is not applied to a line headed by its entry.
# UniProt O94817: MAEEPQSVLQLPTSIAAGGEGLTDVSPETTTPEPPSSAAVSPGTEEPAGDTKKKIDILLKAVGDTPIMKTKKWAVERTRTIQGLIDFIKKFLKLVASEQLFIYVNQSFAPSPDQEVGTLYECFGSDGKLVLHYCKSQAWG
# UniProt Q9H1Y0: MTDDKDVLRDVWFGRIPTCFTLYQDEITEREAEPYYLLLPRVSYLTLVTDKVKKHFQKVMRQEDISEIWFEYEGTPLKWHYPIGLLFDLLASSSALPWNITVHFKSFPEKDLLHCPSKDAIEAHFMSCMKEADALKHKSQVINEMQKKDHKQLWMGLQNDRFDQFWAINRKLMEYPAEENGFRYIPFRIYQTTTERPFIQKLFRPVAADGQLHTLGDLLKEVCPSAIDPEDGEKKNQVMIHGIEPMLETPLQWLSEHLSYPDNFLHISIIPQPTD
# These are yes or no findings as the source states them, for the method shown. Binding seen in cells or lysates may run through a third protein. Some binding calls cover weakened binding; strength is not graded here.
# B1: phospholipid scramblase 1 (PLSCR1), endogenous, induced by RA/IFN-α (protein, UniProt O15162 1-318)
# chain: MDKQNSQMNASHPETNLPVGYPPQYPPTAFQGPPGYSGYPGPQVSYPPPPAGHSGPGPAGFPVPNQPVYNQPVYNQPVGAAGVPWMPAPQPPLNCPPGLEYLSQIDQILIHQQIELLEVLTGFETNNKYEIKNSFGQRVYFAAEDTDCCTRNCCGPSRPFTLRIIDNMGQEVITLERPLRCSSCCCPCCLQEIEIQAPPGVPIGYVIQTWHPCLPKFTIQNEKREDVLKISGPCVVCSCCGDVDFEIKSLDEQCVVGKISKHWTGILREAFTDADNFGIQFPLDLDVKMKAVMIGACFLIDFMFFESTGSQEQKSGVW
# B2: ectopic PLSCR1 (pQCXIP-PLSCR1) in Mino cells (protein, UniProt O15162 1-318)
# chain: B1 chain
# Biological target: ATG12/ATG5 complex (human (endogenous in Mino)) (UniProt O94817+Q9H1Y0)
# Test: co-IP; ATG12 immunoprecipitated overnight with 5 ug anti-Atg12 (6E5) mouse monoclonal antibody and protein A-Sepharose CL4B from 150 ug total lysate of plain and PLSCR1-expressing Mino cells, treated or not with RA/IFN-α for 72 hours; washed three times with lysis buffer; immunoblotting
row,Binder,binding
1,B1,binds
2,B2,binds
